PubChem BioAssay AID1053208 | Peter MacCallum Cancer Centre, 2014

Screen: 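Find knock-downs that sensitise mouse osteosarcoma cells to doxorubicin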 (primary screen)
System: mouse osteosarcoma cells, early-passage culture from an engineered mouse model of fibroblastic bone tumour
Reagents: siRNA pool against mouse genes, 40 nM
Timing: about 120 h (48 h before drug, then 72 h with drug)
Challenge: doxorubicin 100 nM for 72 h, roughly 30-40% inhibitory dose
Read-out: 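Viability read as ATP luminescence after 72 h of 100 nM doxorubicin or none, duplicate wells averaged, scaled to non-targeting siRNA, then expressed as robust z-scores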
Scale: viability z-score with doxorubicin and doxorubicin viability vs non-targeting: higher = more viable cells under doxorubicin; viability z-score without drug: higher = more viable cells with knock-down alone; z-score of drug to no-drug ratio: higher = less drug sensitisation by knock-down
Active means: 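a pool counts as active when its viability z-score with doxorubicin is -2 or below and its z-score without drug lies between -2 and 2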
This is a random part of about 17,000 reagents tested. 788 of all reagents (4.7%) count as active. 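Calls rest on z-score classes alone; an extra cut-off of viability at most 70% of control was not applied to them.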

The opening 2 records as a preview:
target gene	combined z-score class	viability z-score with doxorubicin	viability z-score without drug	z-score of drug to no-drug ratio	doxorubicin viability vs non-targeting	activity call
Psme4 (GeneID 103554)	no change with or without drug	0	1.18	-0.67	0.94	inactive
Slc75a1 (GeneID 68294)	low cell count without drug only	0.45	-2.19	2.47	0.98	inactive

Results, from the start:
target gene	combined z-score class	viability z-score with doxorubicin	viability z-score without drug	z-score of drug to no-drug ratio	doxorubicin viability vs non-targeting	activity call
Psme4 (GeneID 103554)	no change with or without drug	0	1.18	-0.67	0.94	inactive
Slc75a1 (GeneID 68294)	low cell count without drug only	0.45	-2.19	2.47	0.98	inactive
Sox4 (GeneID 20677)	no change with or without drug	0.11	0.17	0.11	0.95	inactive
Baiap2l1 (GeneID 66898)	no change with or without drug	0.67	0.51	0.45	1	inactive
Smc2 (GeneID 14211)	no change with or without drug	0.34	0.17	0.34	0.97	inactive
Trerf1 (GeneID 224829)	no change with or without drug	0.22	0.67	-0.11	0.96	inactive
Tgfbr2 (GeneID 21813)	no change with or without drug	0.45	-0.84	1.24	0.98	inactive
Nup58 (GeneID 71844)	no change with or without drug	1.35	-0.67	2.02	1.06	inactive
Capzb (GeneID 12345)	low cell count without drug only	0.45	-2.19	2.47	0.98	inactive
A730013G03Rik (GeneID 320952)	no change with or without drug	0	-1.01	0.9	0.94	inactive
Chst10 (GeneID 98388)	no change with or without drug	-1.12	-1.18	-0.34	0.84	inactive
Ehhadh (GeneID 74147)	no change with or without drug	0.34	1.01	-0.22	0.97	inactive
Ifngr2 (GeneID 15980)	no change with or without drug	-0.22	-0.34	0.11	0.92	inactive
Tspan4 (GeneID 64540)	no change with or without drug	0.56	0.51	0.34	0.99	inactive
Erg (GeneID 13876)	low cell count with doxorubicin only	-2.25	-1.35	-1.46	0.74	active
Cdk10 (GeneID 234854)	no change with or without drug	0	-0.84	0.67	0.94	inactive
Lhcgr (GeneID 16867)	no change with or without drug	1.8	1.01	1.24	1.1	inactive
Bag6 (GeneID 224727)	no change with or without drug	-1.8	-0.84	-1.24	0.78	inactive
Gpr174 (GeneID 213439)	no change with or without drug	0.9	-1.18	2.02	1.02	inactive
Actb (GeneID 11461)	no change with or without drug	-0.67	-1.85	0.79	0.88	inactive
